According to article PMC13324726:
Where a chain is given by its changes, count along the chain named. Results are given in words; binding and its absence hold for the method and conditions named. Binding seen in cells or lysates may run through a third protein. Some binding calls cover weakened binding; strength is not graded here. For some of these results: Where a sequence is shown, tags or fusion partners need not be part of it.

Amino acid sequences for entries named in this document (tags omitted). A change or cut given only in a name is not applied to a line headed by its entry.
UniProt Q96LT7: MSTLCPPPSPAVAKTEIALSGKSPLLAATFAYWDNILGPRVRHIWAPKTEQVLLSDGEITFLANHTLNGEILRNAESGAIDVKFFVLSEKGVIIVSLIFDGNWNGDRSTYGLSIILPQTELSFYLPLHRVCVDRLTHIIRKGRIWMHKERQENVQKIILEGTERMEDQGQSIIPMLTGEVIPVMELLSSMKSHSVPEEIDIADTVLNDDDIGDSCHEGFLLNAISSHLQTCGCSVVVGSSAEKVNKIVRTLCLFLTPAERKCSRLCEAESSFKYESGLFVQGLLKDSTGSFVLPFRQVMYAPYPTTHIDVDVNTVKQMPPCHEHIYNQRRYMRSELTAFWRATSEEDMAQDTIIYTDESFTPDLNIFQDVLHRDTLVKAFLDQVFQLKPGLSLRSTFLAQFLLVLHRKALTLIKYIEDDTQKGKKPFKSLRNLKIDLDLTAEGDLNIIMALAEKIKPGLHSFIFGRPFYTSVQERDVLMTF
UniProt P61006: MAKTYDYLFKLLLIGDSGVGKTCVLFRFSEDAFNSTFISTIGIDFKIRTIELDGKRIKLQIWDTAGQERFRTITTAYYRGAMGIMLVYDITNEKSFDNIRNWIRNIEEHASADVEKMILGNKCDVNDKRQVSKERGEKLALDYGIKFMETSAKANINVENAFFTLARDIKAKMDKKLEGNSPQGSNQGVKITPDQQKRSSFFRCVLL
UniProt Q9UQN3: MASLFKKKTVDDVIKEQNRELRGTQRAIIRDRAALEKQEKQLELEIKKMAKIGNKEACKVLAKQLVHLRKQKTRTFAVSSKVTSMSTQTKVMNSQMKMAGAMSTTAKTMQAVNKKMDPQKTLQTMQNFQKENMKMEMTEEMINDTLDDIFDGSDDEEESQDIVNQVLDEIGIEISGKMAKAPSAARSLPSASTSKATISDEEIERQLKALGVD
UniProt P55258: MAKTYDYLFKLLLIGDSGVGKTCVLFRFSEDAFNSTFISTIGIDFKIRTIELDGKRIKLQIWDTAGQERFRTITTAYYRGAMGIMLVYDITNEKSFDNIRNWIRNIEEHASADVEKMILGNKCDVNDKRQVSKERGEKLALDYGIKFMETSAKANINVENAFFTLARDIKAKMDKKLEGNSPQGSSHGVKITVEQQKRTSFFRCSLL
UniProt Q8IY33: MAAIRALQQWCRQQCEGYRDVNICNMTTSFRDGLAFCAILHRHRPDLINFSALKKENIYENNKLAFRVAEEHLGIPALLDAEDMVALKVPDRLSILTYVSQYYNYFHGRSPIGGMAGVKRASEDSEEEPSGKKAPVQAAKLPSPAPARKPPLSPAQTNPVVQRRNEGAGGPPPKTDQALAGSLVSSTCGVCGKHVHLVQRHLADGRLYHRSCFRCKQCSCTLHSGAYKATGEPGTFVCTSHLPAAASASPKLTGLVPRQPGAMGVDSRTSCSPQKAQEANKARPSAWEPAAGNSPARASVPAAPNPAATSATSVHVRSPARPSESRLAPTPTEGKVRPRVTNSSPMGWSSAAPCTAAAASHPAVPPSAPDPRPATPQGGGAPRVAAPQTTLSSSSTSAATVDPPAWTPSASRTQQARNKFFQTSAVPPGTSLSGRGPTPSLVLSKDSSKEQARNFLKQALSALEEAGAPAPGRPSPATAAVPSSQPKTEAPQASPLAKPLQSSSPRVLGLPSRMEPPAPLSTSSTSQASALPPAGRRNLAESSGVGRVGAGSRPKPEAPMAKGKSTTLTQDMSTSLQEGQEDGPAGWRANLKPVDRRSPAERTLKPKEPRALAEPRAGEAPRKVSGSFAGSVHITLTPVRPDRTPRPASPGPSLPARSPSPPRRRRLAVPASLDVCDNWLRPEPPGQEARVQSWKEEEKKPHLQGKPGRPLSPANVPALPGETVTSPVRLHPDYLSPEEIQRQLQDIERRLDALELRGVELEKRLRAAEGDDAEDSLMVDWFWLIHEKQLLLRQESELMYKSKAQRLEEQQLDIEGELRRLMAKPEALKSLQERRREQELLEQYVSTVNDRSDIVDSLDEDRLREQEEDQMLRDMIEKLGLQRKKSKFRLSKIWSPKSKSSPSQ

T1: C9orf72/SMCR8 complex (SMCR8-GFP and C9orf72-GFP co-expressed in BV2 cells) (mouse) (UniProt Q6DFW0+Q3UMB5)
T1 sequence 1: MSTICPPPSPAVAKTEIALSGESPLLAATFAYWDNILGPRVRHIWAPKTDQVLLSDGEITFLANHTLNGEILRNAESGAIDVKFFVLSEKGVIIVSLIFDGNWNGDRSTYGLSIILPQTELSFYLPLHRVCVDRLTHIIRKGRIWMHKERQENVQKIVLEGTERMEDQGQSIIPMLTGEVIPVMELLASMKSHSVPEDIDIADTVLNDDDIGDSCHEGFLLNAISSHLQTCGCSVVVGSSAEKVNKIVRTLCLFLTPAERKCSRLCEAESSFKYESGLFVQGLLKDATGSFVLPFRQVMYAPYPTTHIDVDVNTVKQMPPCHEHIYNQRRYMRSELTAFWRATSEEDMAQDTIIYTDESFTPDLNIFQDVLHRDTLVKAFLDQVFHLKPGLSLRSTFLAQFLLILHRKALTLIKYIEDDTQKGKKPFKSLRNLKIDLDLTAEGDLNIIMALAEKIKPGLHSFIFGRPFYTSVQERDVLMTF
T1 sequence 2: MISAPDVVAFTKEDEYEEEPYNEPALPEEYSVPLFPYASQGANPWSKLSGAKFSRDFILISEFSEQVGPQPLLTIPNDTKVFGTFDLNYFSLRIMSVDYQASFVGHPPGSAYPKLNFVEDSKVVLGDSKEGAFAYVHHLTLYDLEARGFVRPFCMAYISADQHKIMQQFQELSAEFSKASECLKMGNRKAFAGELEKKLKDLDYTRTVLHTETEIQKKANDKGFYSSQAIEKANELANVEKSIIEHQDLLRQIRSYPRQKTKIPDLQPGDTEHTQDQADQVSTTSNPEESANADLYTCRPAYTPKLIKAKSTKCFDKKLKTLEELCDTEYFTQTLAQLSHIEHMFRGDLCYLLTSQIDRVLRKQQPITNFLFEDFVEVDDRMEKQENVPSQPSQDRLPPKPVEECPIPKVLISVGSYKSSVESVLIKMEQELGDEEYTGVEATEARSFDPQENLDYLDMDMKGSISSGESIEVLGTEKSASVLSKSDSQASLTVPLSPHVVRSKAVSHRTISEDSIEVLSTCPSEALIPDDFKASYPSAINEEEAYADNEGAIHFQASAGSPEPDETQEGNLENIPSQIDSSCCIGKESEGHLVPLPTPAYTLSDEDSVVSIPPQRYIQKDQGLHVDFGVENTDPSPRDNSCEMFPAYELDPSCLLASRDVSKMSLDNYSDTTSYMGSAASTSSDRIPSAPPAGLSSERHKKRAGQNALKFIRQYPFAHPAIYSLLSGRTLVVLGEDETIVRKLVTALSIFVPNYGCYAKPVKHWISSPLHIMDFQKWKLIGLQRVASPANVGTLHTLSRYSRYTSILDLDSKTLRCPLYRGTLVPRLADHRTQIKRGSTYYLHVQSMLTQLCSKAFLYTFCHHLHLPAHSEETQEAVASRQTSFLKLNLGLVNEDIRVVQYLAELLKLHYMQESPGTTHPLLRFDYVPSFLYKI

B1: C9orf72/SMCR8 complex, endogenous in HEK293T cells (complex, UniProt Q96LT7 1-481; Q8TEV9 1-937)
chain 1: T1 sequence 1 with I4L, E22K, D50E, V158I, A188S, D198E, A287S, H386Q, I404V
chain 2: MISAPDVVAFTKEEEYEEEPYNEPALPEEYSVPLFPFASQGANPWSKLSGAKFSRDFILISEFSEQVGPQPLLTIPNDTKVFGTFDLNYFSLRIMSVDYQASFVGHPPGSAYPKLNFVEDSKVVLGDSKEGAFAYVHHLTLYDLEARGFVRPFCMAYISADQHKIMQQFQELSAEFSRASECLKTGNRKAFAGELEKKLKDLDYTRTVLHTETEIQKKANDKGFYSSQAIEKANELASVEKSIIEHQDLLKQIRSYPHRKLKGHDLCPGEMEHIQDQASQASTTSNPDESADTDLYTCRPAYTPKLIKAKSTKCFDKKLKTLEELCDTEYFTQTLAQLSHIEHMFRGDLCYLLTSQIDRALLKQQHITNFLFEDFVEVDDRMVEKQESIPSKPSQDRPPSSSLEECPIPKVLISVGSYKSSVESVLIKMEQELGDEEYKEVEVTELSSFDPQENLDYLDMDMKGSISSGESIEVLGTEKSTSVLSKSDSQASLTVPLSPQVVRSKAVSHRTISEDSIEVLSTCPSEALIPDDFKASYPSAINEEESYPDGNEGAIRFQASISPPELGETEEGSIENTPSQIDSSCCIGKESDGQLVLPSTPAHTHSDEDGVVSSPPQRHRQKDQGFRVDFSVENANPSSRDNSCEGFPAYELDPSHLLASRDISKTSLDNYSDTTSYVSSVASTSSDRIPSAYPAGLSSDRHKKRAGQNALKFIRQYPFAHPAIYSLLSGRTLVVLGEDEAIVRKLVTALAIFVPSYGCYAKPVKHWASSPLHIMDFQKWKLIGLQRVASPAGAGTLHALSRYSRYTSILDLDNKTLRCPLYRGTLVPRLADHRTQIKRGSTYYLHVQSMLTQLCSKAFLYTFCHHLHLPTHDKETEELVASRQMSFLKLTLGLVNEDVRVVQYLAELLKLHYMQESPGTSHPMLRFDYVPSFLYKI

Legend:
[1] = target: GFP-RAB8A (wild-type) (human) (UniProt P61006); experiment: co-IP; GFP-Trap IP from 293T cells co-transfected with GFP-RAB8A and HA-MICALL2 or empty vector, after 1 mM LLOMe 30 min; blots for HA-MICALL2, GFP-RAB8A and CHMP2B
[2] = target: T1, C9orf72/SMCR8 complex (SMCR8-GFP and C9orf72-GFP co-expressed in BV2 cells) (mouse); experiment: co-IP; GFP-Trap beads overnight at 4 °C on lysates of BV2 cells co-expressing SMCR8-GFP and C9orf72-GFP, basal or 1 mM LLOMe 30 min; lysis buffer 20 mM Tris-HCl pH 7.4, 150 mM NaCl, 0.5% NP-40; blots for pT72-RAB8A and total RAB8A
[3] = target: GFP-RAB8A Q67L (GTP-bound form) (human) (UniProt P61006); experiment: co-IP; GFP-Trap IP from HEK293T cells expressing GFP-tagged RAB8A variants (WT, Q67L, T22N), basal or 1 mM LLOMe 30 min; blots for endogenous SMCR8 and C9orf72

| Molecule | binding [1] | other results |
| --- | --- | --- |
| CHMP2B, endogenous in HEK293T cells (from UniProt Q9UQN3 1-213) | binds |  |
| phosphorylated RAB8A (pT72-RAB8A), endogenous in BV2 cells (from UniProt P55258 1-207) |  | binding [2]: binds |
| HA-MICALL2 (from UniProt Q8IY33 1-904) | binds |  |
| B1 |  | binding [3]: binds |
